PubChem BioAssay AID493014 (National Center for Advancing Translational Sciences (NCATS), 2011)
Some of the results follow. The main result of the screen is listed elsewhere. These columns were measured beside it and carry no call. Most of these compounds were active or inconclusive in the main read-out, so they are no random draw. Potencies come from curve fits of mixed quality, noted in brackets.

Assay: qHTS Assay to Find Inhibitors of Chronic Active B-Cell Receptor Signaling
Settings: ABC-DLBCL IkBa-CBG/CBR reporter, luminescence ratio (green luciferase fused to IkBa over red control in TMD8 lymphoma cells), 4 h
In short: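 Concentration-response series (up to 46 uM) were applied to TMD8 dual-reporter cells for 4 h at 37C with doxycycline. Green/red ratio, after filter-overlap correction, defined %Activity; red signal alone was normalised to basal cells and zero luminescence.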

[1] = measured here: CBR red luminescence, cell number
[2] = measured here: IkBa-CBG green luminescence

SMILES | AC50 [1] | AC50 [2]
COc1ccc(CNC(=O)C2CCCN2S(=O)(=O)c2ccc(Cl)cc2)cc1 (stereo not given) | 2.59 µM [rising, partial curve, poor fit] | 
CCOC(=O)C1(C)C=C(Nc2ccccc2)C(=O)N1c1ccccc1 (stereo not given) | 2.82 µM [rising, full curve, poor fit] | 
O=C(Cc1ccc(Cl)cc1)NC1CC1 | 3.16 µM [rising, full curve, poor fit] | 
Cc1ccc(S(=O)(=O)N2CCCC2C(=O)OCc2nc3sc(C)c(C)c3c(=O)[nH]2)cc1 (stereo not given) | 16.4 µM [falling, partial curve, poor fit] | 
COc1cc(CNCCO)ccc1OC1CCCC1 | 4.11 µM [falling, single point] | 
Cc1nc2cc(-c3ccccc3)nn2c(C)c1CCC(=O)NCc1ccco1 | 20.6 µM [falling, single point] | 
O=C1C=C(c2cc(F)ccc2F)C[C@@H](c2ccc(Cl)cc2)C1 | 1.46 µM [rising, partial curve, poor fit] | 
O=C(Nc1ccc(O)cc1C(=O)O)c1cccc(Br)c1 | 0.316 µM [falling, full curve] | 
O=C(Nc1ccc(F)cc1)c1cccnc1N1CCCCC1 | 0.164 µM [falling, partial curve, poor fit] | 
Cc1onc(-c2ccccc2)c1C(=O)OCC(=O)Nc1ccccc1 | 6.51 µM [rising, single point] | 
COc1ccc2nc(C)cc(SCC(=O)N/N=C/c3cccc4ccccc34)c2c1 | 18.4 µM [falling, single point] | 
COC(=O)c1cn(C(=O)c2cc(C)cc(C)c2)c2ccccc12 | 5.62 µM [rising, full curve, poor fit] | 
Oc1[nH]c2ccccc2c1N=Nc1nc(Nc2ccccc2)nc(N2CCOCC2)n1 | 22.4 µM [falling, single point] | 
COc1cc(CNc2ccc(N3CCCC3)cc2)ccc1OCc1ccccc1F | 5.8 µM [falling, full curve] | 
COc1ccc(C2NC(=O)C(C#N)=C(S)N2c2cccc(C)c2)cc1OC (stereo not given) | 11.2 µM [rising, partial curve] | 25.1 µM [falling, single point]
COc1ccc(S(=O)(=O)N(C)C)cc1NC(=O)CSc1nncs1 | 14.1 µM [rising, partial curve, poor fit] | 
N#Cc1nc(Cc2cccc3ccccc23)oc1NCCN1CCCCC1 | 12.6 µM [falling, partial curve, poor fit] | 
COc1ccc(/C=N/NC(=O)c2ccc(Cn3cc([N+](=O)[O-])cn3)o2)cc1O | 4.61 µM [falling, partial curve, poor fit] | 
COC(=O)c1ccc(NC(=O)c2cccc(C)c2[N+](=O)[O-])cc1 | 3.98 µM [falling, partial curve, poor fit] | 
COc1ccc(-c2noc(CCC(=O)NCCc3ccccc3)n2)cc1OC | 15.8 µM [rising, single point] | 
CCOc1ccc(NC(=O)Nc2cccn(Cc3ccccc3)c2=O)cc1 | 35.5 µM [falling, single point] | 
CCNc1cc(N2CCOCC2)nc(SC)n1 | 20 µM [falling, partial curve, poor fit] | 

SMILES | AC50 [1] | AC50 [2]
O=C(C1=C[C@H](c2ccc(Br)cc2)C[C@H](OCc2ccc(CO)cc2)O1)N1CCN(Cc2ccc3c(c2)OCO3)CC1 | 15.8 µM [falling, single point] | 
O=c1cc(-c2ccccc2Cl)oc2c(NS(=O)(=O)c3cc(Cl)cc(Cl)c3O)ccc(O)c12 | 29.1 µM [falling, single point] | 
CSc1ccccc1NC(=O)C1=CC(c2cccs2)=NS(=O)(=O)N1C | 35.5 µM [falling, single point] | 
Cc1cccc(NC(=O)CSc2ncnc3nc[nH]c23)c1 | 0.112 µM [falling, full curve, poor fit] | 
CS(=O)(=O)N(Cc1ccccc1Cl)c1ccc(C(=O)N2CCCC2)cc1 | 6.31 µM [rising, single point] | 
Cn1c(=O)n(C)c2cc(C(=O)Nc3ccc4c(c3)OCO4)ccc21 | 29.1 µM [rising, single point] | 
COc1cc(/C=N/Nc2nc(Nc3ccccc3)nc(-n3nc(C)cc3C)n2)cc(OC)c1OC | 0.731 µM [falling, full curve] | 
O=[N+]([O-])c1ccc(-[n+]2nc(-c3ccccc3)nn2-c2ccccc2)cc1 | 15.8 µM [rising, single point] | 
CCOc1ccc(S(=O)(=O)N(C)c2ccc(OCC(=O)OCc3c(C)noc3C)cc2)cc1 | 35.5 µM [rising, single point] | 
CCNC(=O)COc1cc(C)c(Br)c(C)c1 | 6.31 µM [rising, partial curve, poor fit] | 
CCCCN(CC)C(=O)CSc1nc2n[nH]c(C)c2c(=N)n1-c1cccc(OC)c1 | 35.5 µM [falling, single point] | 
Cc1c(O)ccc(/C(Cc2ccc3ccccc3n2)=N\N)c1O | 2.51 µM [rising, single point] | 
C=CCn1c(SCC(=O)NC(=O)NCCC)nnc1C1CCCCC1 | 7.94 µM [falling, partial curve, poor fit] | 
CNCCCN1c2ccccc2CCc2ccccc21 | 22.4 µM [falling, partial curve, poor fit] | 
COC(=O)c1cn(NC(=O)/C=C/c2cc(OC)ccc2OC)c(=O)c2ccccc12 | 29.1 µM [falling, single point] | 
CNC(=O)c1c(NC(=O)c2nc3ccccc3s2)sc2c1CCC2 | 0.0731 µM [falling, full curve] | 
Fc1cccc(NC(=S)Nc2ccc(Br)cc2)c1 | 3.55 µM [rising, partial curve, poor fit] | 
CCOc1ccc(Cl)cc1/C=N/O | 11.2 µM [rising, partial curve] | 
Cc1ccccc1OCCC(=O)N(Cc1ccccc1)c1c(N)n(Cc2ccccc2)c(=O)[nH]c1=O | 11.2 µM [falling, single point] | 
CSc1cccc(NC(=O)CCCOc2ccc(Cl)cc2Cl)c1 | 29.1 µM [falling, single point] | 
O=S(=O)(c1ccc(Cl)cc1)c1snnc1-c1ccccc1 | 2.31 µM [falling, single point] | 
Cc1cc(C(=O)N2CCCC(N3CCN(c4cccc(C(F)(F)F)c4)CC3)C2)c(C)o1 (stereo not given) | 8.91 µM [falling, partial curve, poor fit] | 

A second format for part of the listing above:

| SMILES | AC50 [1] | AC50 [2] |
| --- | --- | --- |
| C=CCn1c(SCC(=O)NC(=O)NCCC)nnc1C1CCCCC1 | 7.94 µM [falling, partial curve, poor fit] |  |
| CNCCCN1c2ccccc2CCc2ccccc21 | 22.4 µM [falling, partial curve, poor fit] |  |
| COC(=O)c1cn(NC(=O)/C=C/c2cc(OC)ccc2OC)c(=O)c2ccccc12 | 29.1 µM [falling, single point] |  |
| CNC(=O)c1c(NC(=O)c2nc3ccccc3s2)sc2c1CCC2 | 0.0731 µM [falling, full curve] |  |

Further compounds

SMILES | AC50 [1] | AC50 [2]
CNS(=O)(=O)c1cc(NC(=O)c2cncn2-c2ccccc2)ccc1C | 7.94 µM [rising, partial curve, poor fit] | 
O=S(=O)(Nc1nc(SCc2ccc(Cl)cc2)n[nH]1)c1ccc(F)cc1 | 6.31 µM [rising, single point] | 
CC(=O)N1CCc2cc(S(=O)(=O)NCCC(=O)NC3CCCc4ccccc43)ccc21 (stereo not given) | 4.61 µM [rising, single point] | 
CCOc1cc(/C=C/c2nc3ccccc3c(=O)[nH]2)ccc1O | 12.6 µM [falling, partial curve, poor fit] | 
CC(C)CN(CCCNC(=O)CN1N=C(c2ccc(Cl)cc2)CCC1=O)CC(C)C | 35.5 µM [falling, single point] | 
COCC(C)NC(=O)c1cc(-c2ccc(O)cc2)on1 (stereo not given) | 12.6 µM [falling, partial curve] | 
C[C@H](CO)N1C[C@H](C)[C@@H](CN(C)S(=O)(=O)c2cccs2)Oc2ccc(NC(=O)Cc3ccccc3)cc2C1=O | 16.4 µM [rising, partial curve, poor fit] | 
C=CCn1c(-c2cc3c(s2)CCC(CC)C3)n[nH]c1=S (stereo not given) | 15.8 µM [rising, single point] | 
Cc1ccc(-n2c(=O)[nH]c3c(C(N)=O)nc(CC(C)C)nc32)cc1 | 3.26 µM [falling, partial curve] | 
O=Cc1ccc(N2CCCCCC2)cc1 | 0.146 µM [rising, full curve, poor fit] | 
O=C(CSc1cccc[n+]1[O-])Nc1ccccc1Oc1ccccc1 |  | 3.16 µM [falling, full curve]
O=C(Nc1ccccc1)c1ccccc1C(=O)N1CCCCC1 | 10 µM [rising, partial curve, poor fit] | 
CC(=O)Cc1nsc(NC(=O)c2cc(-c3ccccc3Cl)oc2C)n1 |  | 18.4 µM [rising, partial curve, poor fit]
COc1ccc(CNC(=O)c2cc(-c3cc(C)cc(C)c3O)n[nH]2)cc1 | 11.2 µM [falling, partial curve, poor fit] | 
Cc1ccc(-c2nc(C#N)c(NCCc3ccccn3)o2)cc1 | 14.1 µM [rising, partial curve, poor fit] | 
O=C(NC(Cc1c[nH]c2ccccc12)C(=O)Nc1ccc(F)cc1)c1cccs1 (stereo not given) | 18.4 µM [falling, single point] | 
CSc1ccccc1NC(=O)CSc1nnc(COc2ccccc2)o1 | 8.91 µM [falling, partial curve] | 
O=C(NC(=S)NC1CCSC1=O)c1ccccc1 (stereo not given) |  | 32.6 µM [falling, partial curve, poor fit]
CCc1c(C)sc(NC(=O)c2ccco2)c1C(=O)N1CCCCC1 | 6.51 µM [rising, single point] | 
O=C(CN1C(=O)c2ccccc2S1(=O)=O)N1CCN(Cc2ccc3c(c2)OCO3)CC1 | 0.291 µM [rising, full curve, poor fit] | 
